Data: the supplement of paper PMC7661543
± gives the standard deviation of the averaged measurements. The effect of the compound repeats well; differences between the knockouts mostly do not.

Tested on: ZR-75-1
Experiment: relative cell number vs DMSO control (72 h) (% of DMSO); higher = less growth inhibition (more cells)
Description: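 QMAP-Seq: a pool of 5 breast cancer cell lines (ZR-75-1, SKBR3, HCC-38, MDA-MB-231, BT-20), each carrying 12 doxycycline-inducible Cas9 sgRNA perturbations (11 knockouts plus non-targeting sgNT), was treated with compounds for 72 h at four 10-fold doses (10 nM-10 uM or 1 nM-1 uM range). Barcodes were amplified and sequenced, and cell number was interpolated from 293T spike-in standard curves. The result is expressed as % of the median of DMSO wells. Two biological replicates.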

[1] = sgRNA knockout: sgATF3, 1000 nM
[2] = sgRNA knockout: sgATF3, 10000 nM
[3] = sgRNA knockout: sgATF4, 1000 nM
[4] = sgRNA knockout: sgATF4, 10000 nM
[5] = sgRNA knockout: sgATF6, 1000 nM
[6] = sgRNA knockout: sgATF6, 10000 nM
[7] = sgRNA knockout: sgATG7, 1000 nM
[8] = sgRNA knockout: sgATG7, 10000 nM
[9] = sgRNA knockout: sgERN1, 1000 nM
[10] = sgRNA knockout: sgERN1, 10000 nM
[11] = sgRNA knockout: sgHSF2, 1000 nM
[12] = sgRNA knockout: sgHSF2, 10000 nM
[13] = sgRNA knockout: sgNFE2L2, 10 nM
[14] = sgRNA knockout: sgNFE2L2, 100 nM
[15] = sgRNA knockout: sgNFE2L2, 1000 nM
[16] = sgRNA knockout: sgNFE2L2, 10000 nM
[17] = sgRNA knockout: sgSLC35F2, 10 nM
[18] = sgRNA knockout: sgSLC35F2, 100 nM
[19] = sgRNA knockout: sgSLC35F2, 1000 nM
[20] = sgRNA knockout: sgSLC35F2, 10000 nM
[21] = sgRNA knockout: sgXBP1, 1000 nM
[22] = sgRNA knockout: sgXBP1, 10000 nM

Structure (SMILES) | relative cell number (sgRNA knockout: sgATF3, 10 nM) | relative cell number (sgRNA knockout: sgATF3, 100 nM) | relative cell number [1] | relative cell number [2] | relative cell number (sgRNA knockout: sgATF4, 10 nM) | relative cell number (sgRNA knockout: sgATF4, 100 nM) | relative cell number [3] | relative cell number [4] | relative cell number (sgRNA knockout: sgATF6, 10 nM) | relative cell number (sgRNA knockout: sgATF6, 100 nM) | relative cell number [5] | relative cell number [6] | relative cell number (sgRNA knockout: sgATG7, 10 nM) | relative cell number (sgRNA knockout: sgATG7, 100 nM) | relative cell number [7] | relative cell number [8] | relative cell number (sgRNA knockout: sgERN1, 10 nM) | relative cell number (sgRNA knockout: sgERN1, 100 nM) | relative cell number [9] | relative cell number [10] | relative cell number (sgRNA knockout: sgHSF2, 10 nM) | relative cell number (sgRNA knockout: sgHSF2, 100 nM) | relative cell number [11] | relative cell number [12] | relative cell number [13] | relative cell number [14] | relative cell number [15] | relative cell number [16] | relative cell number [17] | relative cell number [18] | relative cell number [19] | relative cell number [20] | relative cell number (sgRNA knockout: sgXBP1, 10 nM) | relative cell number (sgRNA knockout: sgXBP1, 100 nM) | relative cell number [21] | relative cell number [22]
CCCS(=O)(=O)Nc1ccc(F)c(C(=O)c2c[nH]c3ncc(Cl)cc23)c1F [PLX4720] | 106 ± 5.1 | 94 ± 29 | 112 ± 17 | 118 ± 3.1 | 108 ± 60 | 85.1 ± 2.8 | 72.6 ± 15 | 119 ± 3.7 | 102 ± 22 | 80 ± 18 | 79.8 ± 19 | 126 ± 88 | 97.92 ± 0.51 | 69.7 ± 31 | 150 ± 15 | 157 ± 50 | 102 ± 16 | 102 ± 7 | 120 ± 22 | 141 ± 74 | 98.7 ± 15 | 124 ± 23 | 101 ± 5.1 | 111 ± 30 | 98.7 ± 29 | 144 ± 11 | 103 ± 41 | 111 ± 52 | 111 ± 39 | 85.6 ± 87 | 98.2 ± 15 | 128 ± 37 | 108 ± 3.7 | 120 ± 6.5 | 117 ± 16 | 103 ± 52
CCOC(=O)c1ccc(N2NC(=O)C(=Cc3ccc([N+](=O)[O-])o3)C2=O)cc1 [PYR41] | 114 ± 24 | 88.3 ± 4 | 94.2 ± 28 | 61.4 ± 33 | 125 ± 11 | 88.5 ± 8.2 | 127 ± 10 | 75.6 ± 11 | 105 ± 40 | 89.2 ± 6.7 | 93.4 ± 7.8 | 91.5 ± 34 | 89.2 ± 13 | 90 ± 28 | 104 ± 51 | 69.2 ± 35 | 96.6 ± 2.3 | 87.4 ± 4.1 | 116 ± 18 | 101 ± 11 | 116 ± 12 | 103 ± 21 | 106 ± 1.2 | 88.3 ± 4.2 | 111 ± 11 | 107 ± 21 | 114 ± 1.8 | 106 ± 28 | 93.2 ± 1.5 | 92.5 ± 16 | 122 ± 42 | 78.7 ± 24 | 103 ± 4.3 | 88.72 ± 0.81 | 104 ± 12 | 108 ± 6.6
O=C(CCc1ccc(O)cc1)c1c(O)cc(O)cc1O [Phloretin] | 115 ± 47 | 131 ± 41 | 121 ± 9.7 | 108 ± 24 | 112 ± 42 | 107 ± 29 | 138 ± 55 | 105 ± 22 | 98.3 ± 63 | 109 ± 3.1 | 85.8 ± 4.1 | 70.6 ± 28 | 81.4 ± 24 | 87.651 ± 0.039 | 120 ± 66 | 81.88 ± 0.62 | 112 ± 24 | 109.1 ± 0.82 | 93.9 ± 1.2 | 96.5 ± 13 | 104 ± 17 | 79.3 ± 14 | 102 ± 35 | 116 ± 8.9 | 108 ± 1.1 | 112 ± 22 | 95.6 ± 18 | 129 ± 16 | 99.6 ± 4.7 | 126 ± 50 | 70 ± 26 | 126 ± 45 | 110 ± 1.4 | 92.7 ± 21 | 86.5 ± 5.2 | 91 ± 7.7
c1ccc2c(Oc3nc(Nc4ccc(N5CCOCC5)cc4)c4ncn(C5CCCCC5)c4n3)cccc2c1 [Purmorphamine] | 125 ± 8.4 | 68.4 ± 3.4 | 105 ± 49 | 46.9 ± 16 | 113 ± 29 | 106 ± 12 | 84.1 ± 15 | 39.2 ± 21 | 60.2 ± 14 | 85.9 ± 32 | 68.6 ± 16 | 56.1 ± 2.7 | 103 ± 19 | 91.9 ± 11 | 100 ± 6.5 | 46.2 ± 1.2 | 95.4 ± 15 | 89.1 ± 1.8 | 107 ± 27 | 48.6 ± 1.6 | 110 ± 19 | 83.5 ± 25 | 93.1 ± 1.8 | 51.7 ± 3.2 | 113 ± 9 | 107 ± 38 | 106 ± 20 | 61.6 ± 3.3 | 92.9 ± 30 | 55.827 ± 0.013 | 88 ± 58 | 38.5 ± 13 | 106 ± 19 | 105 ± 36 | 110 ± 17 | 51.2 ± 2
